{
  "sequences": {"note": "Chains of the proteins cited; added tags and fusions are not shown. Lines headed by an entry give the natural chain unless they say otherwise; changes in a name come on top.", "UniProt Q6PGQ7, whole entry, looked up": "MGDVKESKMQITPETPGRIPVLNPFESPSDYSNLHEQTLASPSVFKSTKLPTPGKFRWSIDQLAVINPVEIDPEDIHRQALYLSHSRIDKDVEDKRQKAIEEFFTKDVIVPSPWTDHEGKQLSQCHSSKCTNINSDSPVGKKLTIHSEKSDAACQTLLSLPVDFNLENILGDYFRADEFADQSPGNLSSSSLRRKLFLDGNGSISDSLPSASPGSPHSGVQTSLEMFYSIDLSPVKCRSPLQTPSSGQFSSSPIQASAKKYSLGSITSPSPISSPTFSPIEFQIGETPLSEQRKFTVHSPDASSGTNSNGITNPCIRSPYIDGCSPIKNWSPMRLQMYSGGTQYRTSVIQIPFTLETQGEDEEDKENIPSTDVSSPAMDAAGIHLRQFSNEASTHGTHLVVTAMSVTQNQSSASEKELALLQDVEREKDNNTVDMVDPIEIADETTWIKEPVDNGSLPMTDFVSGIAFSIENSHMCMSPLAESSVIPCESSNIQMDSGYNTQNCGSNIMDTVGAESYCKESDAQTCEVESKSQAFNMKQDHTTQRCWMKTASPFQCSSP", "UniProt P36969, whole entry": "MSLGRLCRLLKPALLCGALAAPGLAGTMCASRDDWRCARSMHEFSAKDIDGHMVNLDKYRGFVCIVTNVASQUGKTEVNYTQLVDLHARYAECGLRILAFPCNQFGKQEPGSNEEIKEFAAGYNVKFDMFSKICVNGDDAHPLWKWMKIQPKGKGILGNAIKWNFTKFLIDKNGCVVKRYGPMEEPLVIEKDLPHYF", "UniProt Q96A57": "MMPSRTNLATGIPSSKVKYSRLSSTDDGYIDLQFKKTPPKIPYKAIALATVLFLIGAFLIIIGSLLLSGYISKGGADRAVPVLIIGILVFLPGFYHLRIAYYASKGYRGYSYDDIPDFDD", "UniProt Q00610": "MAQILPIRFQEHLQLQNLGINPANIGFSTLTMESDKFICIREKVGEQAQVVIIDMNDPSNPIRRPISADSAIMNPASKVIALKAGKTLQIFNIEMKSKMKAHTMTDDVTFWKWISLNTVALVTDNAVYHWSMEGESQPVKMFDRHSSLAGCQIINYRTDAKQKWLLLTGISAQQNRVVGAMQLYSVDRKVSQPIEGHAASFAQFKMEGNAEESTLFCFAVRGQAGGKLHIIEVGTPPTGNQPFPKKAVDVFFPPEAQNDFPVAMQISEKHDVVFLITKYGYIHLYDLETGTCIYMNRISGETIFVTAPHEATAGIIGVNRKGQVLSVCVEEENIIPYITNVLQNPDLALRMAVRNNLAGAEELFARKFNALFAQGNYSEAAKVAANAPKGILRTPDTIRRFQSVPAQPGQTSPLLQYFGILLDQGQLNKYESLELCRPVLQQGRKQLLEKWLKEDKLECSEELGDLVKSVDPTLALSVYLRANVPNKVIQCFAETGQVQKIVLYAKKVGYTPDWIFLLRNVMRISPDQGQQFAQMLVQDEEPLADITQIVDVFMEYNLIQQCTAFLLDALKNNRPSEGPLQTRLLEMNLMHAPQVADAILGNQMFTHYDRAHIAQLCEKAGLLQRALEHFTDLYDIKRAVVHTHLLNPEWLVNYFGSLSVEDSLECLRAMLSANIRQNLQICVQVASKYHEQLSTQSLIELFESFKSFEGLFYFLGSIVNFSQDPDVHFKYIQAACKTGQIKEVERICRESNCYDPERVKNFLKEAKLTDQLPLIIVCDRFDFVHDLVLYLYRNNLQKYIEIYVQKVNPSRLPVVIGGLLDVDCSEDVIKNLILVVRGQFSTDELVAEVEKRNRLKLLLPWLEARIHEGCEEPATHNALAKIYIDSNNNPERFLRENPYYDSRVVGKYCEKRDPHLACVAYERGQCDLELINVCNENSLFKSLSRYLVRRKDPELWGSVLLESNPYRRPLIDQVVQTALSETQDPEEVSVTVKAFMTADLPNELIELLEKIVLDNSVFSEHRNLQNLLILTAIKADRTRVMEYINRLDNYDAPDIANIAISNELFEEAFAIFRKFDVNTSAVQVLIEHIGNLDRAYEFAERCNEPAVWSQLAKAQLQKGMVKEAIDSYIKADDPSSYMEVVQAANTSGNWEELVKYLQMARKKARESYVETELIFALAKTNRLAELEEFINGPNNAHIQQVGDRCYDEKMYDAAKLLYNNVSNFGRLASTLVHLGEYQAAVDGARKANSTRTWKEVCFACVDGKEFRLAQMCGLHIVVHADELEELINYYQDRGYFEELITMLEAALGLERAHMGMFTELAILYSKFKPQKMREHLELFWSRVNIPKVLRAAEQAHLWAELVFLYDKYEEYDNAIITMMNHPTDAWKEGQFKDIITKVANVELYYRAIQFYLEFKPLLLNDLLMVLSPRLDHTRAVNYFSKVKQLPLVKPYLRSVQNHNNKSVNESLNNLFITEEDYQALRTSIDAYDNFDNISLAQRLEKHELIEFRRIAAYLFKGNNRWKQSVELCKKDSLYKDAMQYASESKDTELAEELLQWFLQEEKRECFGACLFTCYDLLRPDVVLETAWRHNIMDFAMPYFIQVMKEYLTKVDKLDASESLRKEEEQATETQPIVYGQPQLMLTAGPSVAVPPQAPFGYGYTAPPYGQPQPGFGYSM", "UniProt Q9Y371": "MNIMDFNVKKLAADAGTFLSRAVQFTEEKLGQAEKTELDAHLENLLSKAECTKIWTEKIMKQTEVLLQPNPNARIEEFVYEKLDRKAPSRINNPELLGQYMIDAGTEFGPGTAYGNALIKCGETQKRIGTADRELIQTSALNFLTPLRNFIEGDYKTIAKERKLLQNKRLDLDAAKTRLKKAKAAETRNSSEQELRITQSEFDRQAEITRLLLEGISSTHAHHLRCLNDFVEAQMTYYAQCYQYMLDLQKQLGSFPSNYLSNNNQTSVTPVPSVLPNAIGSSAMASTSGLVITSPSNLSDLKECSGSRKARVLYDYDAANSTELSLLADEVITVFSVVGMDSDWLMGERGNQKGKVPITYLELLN", "UniProt P35227": "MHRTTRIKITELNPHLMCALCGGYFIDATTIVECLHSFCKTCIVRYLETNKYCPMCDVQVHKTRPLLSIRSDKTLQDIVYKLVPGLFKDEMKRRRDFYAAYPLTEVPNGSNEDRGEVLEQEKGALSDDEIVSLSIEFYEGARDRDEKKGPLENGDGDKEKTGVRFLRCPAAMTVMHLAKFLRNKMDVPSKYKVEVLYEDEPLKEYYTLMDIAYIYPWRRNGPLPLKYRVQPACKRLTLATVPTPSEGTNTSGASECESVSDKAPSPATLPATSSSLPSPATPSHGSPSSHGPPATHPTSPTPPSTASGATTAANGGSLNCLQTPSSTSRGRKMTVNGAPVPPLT", "UniProt Q9Y388": "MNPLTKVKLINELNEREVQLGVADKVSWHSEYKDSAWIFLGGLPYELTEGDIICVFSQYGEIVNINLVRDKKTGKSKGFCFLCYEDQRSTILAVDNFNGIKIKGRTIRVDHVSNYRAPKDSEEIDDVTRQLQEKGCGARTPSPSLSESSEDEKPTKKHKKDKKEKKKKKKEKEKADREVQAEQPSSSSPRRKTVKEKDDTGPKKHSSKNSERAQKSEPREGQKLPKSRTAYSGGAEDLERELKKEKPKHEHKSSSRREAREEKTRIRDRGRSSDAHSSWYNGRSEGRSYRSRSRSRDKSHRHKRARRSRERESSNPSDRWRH"},
  "source": "the supplement of paper PMC6411743",
  "compound": "Nc1ncnc2c1ncn2[C@@H]1O[C@H](COP(=O)(O)OP(=O)(O)NP(=O)(O)O)[C@@H](O)[C@H]1O [adenylyl imidodiphosphate]",
  "test": "NP40-soluble protein abundance relative to vehicle (solubility fold change) (ratio); higher = more soluble protein in presence of AMP-PNP",
  "outline": "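Values are fold changes against the detergent-processed vehicle, based on vsn-normalised intensities. Jurkat crude lysate was treated at eight concentrations from 0.1 to 10 mM (10 min at room temperature, then 3 min at 37 °C), solubilised with 0.8% NP40 and benzonase, ultracentrifuged and analysed by TMT-labelled LC-MS/MS over three independent experiments.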",
  "note": "± gives the standard deviation of the averaged measurements. The entries are a selection whose mix differs from that of the whole data set.",
  "data": [
    {"target": "A0A075B738|P16284 and related entries (UniProt P16284)", "values": [
      {"measurement": "NP40-soluble protein abundance", "setting": "concentration: 1mM", "value": "1.02 ± 0.027"},
      {"measurement": "NP40-soluble protein abundance", "setting": "concentration: 2mM", "value": "1.08 ± 0.095"},
      {"measurement": "NP40-soluble protein abundance", "setting": "concentration: 4mM", "value": "1.01 ± 0.033"},
      {"measurement": "NP40-soluble protein abundance", "setting": "concentration: 6mM", "value": "0.995 ± 0.011"},
      {"measurement": "NP40-soluble protein abundance", "setting": "concentration: 8mM", "value": "0.98 ± 0.013"},
      {"measurement": "NP40-soluble protein abundance", "setting": "concentration: 10mM", "value": "0.994 ± 0.032"}
    ]},
    {"target": "A0A087WV86|B5LMG6 and related entries (UniProt Q6PGQ7+B5LMG6)", "values": [
      {"measurement": "NP40-soluble protein abundance", "setting": "concentration: 1mM", "value": "1.019 ± 0.0098"},
      {"measurement": "NP40-soluble protein abundance", "setting": "concentration: 2mM", "value": "1.036 ± 0.0083"},
      {"measurement": "NP40-soluble protein abundance", "setting": "concentration: 4mM", "value": "0.992 ± 0.0092"},
      {"measurement": "NP40-soluble protein abundance", "setting": "concentration: 6mM", "value": "1.012 ± 0.0096"},
      {"measurement": "NP40-soluble protein abundance", "setting": "concentration: 8mM", "value": "1.006 ± 0.0059"},
      {"measurement": "NP40-soluble protein abundance", "setting": "concentration: 10mM", "value": "0.992 ± 0.016"}
    ]},
    {"target": "A0A087WT12|A0A087X2I2|K7ERP4 and related entries (UniProt P36969)", "values": [
      {"measurement": "NP40-soluble protein abundance", "setting": "concentration: 1mM", "value": "0.954 ± 0.054"},
      {"measurement": "NP40-soluble protein abundance", "setting": "concentration: 2mM", "value": "0.939 ± 0.05"},
      {"measurement": "NP40-soluble protein abundance", "setting": "concentration: 4mM", "value": "1.02 ± 0.11"},
      {"measurement": "NP40-soluble protein abundance", "setting": "concentration: 6mM", "value": "1.09 ± 0.16"},
      {"measurement": "NP40-soluble protein abundance", "setting": "concentration: 8mM", "value": "1.12 ± 0.13"},
      {"measurement": "NP40-soluble protein abundance", "setting": "concentration: 10mM", "value": "1.13 ± 0.14"}
    ]},
    {"target": "A0A087WTT2|Q5JWB9 and related entries (UniProt Q96A57)", "values": [
      {"measurement": "NP40-soluble protein abundance", "setting": "concentration: 1mM", "value": "0.976 ± 0.038"},
      {"measurement": "NP40-soluble protein abundance", "setting": "concentration: 2mM", "value": "1.01 ± 0.047"},
      {"measurement": "NP40-soluble protein abundance", "setting": "concentration: 4mM", "value": "0.959 ± 0.062"},
      {"measurement": "NP40-soluble protein abundance", "setting": "concentration: 6mM", "value": "0.999 ± 0.062"},
      {"measurement": "NP40-soluble protein abundance", "setting": "concentration: 8mM", "value": "0.99 ± 0.043"},
      {"measurement": "NP40-soluble protein abundance", "setting": "concentration: 10mM", "value": "0.983 ± 0.091"}
    ]},
    {"target": "A0A087WVQ6|Q00610 and related entries (UniProt Q00610)", "values": [
      {"measurement": "NP40-soluble protein abundance", "setting": "concentration: 1mM", "value": "0.927 ± 0.021"},
      {"measurement": "NP40-soluble protein abundance", "setting": "concentration: 2mM", "value": "0.831 ± 0.094"},
      {"measurement": "NP40-soluble protein abundance", "setting": "concentration: 4mM", "value": "0.854 ± 0.012"},
      {"measurement": "NP40-soluble protein abundance", "setting": "concentration: 6mM", "value": "0.838 ± 0.032"},
      {"measurement": "NP40-soluble protein abundance", "setting": "concentration: 8mM", "value": "0.839 ± 0.014"},
      {"measurement": "NP40-soluble protein abundance", "setting": "concentration: 10mM", "value": "0.788 ± 0.017"}
    ]},
    {"target": "A0A087WW40|Q9Y371 and related entries (UniProt Q9Y371)", "values": [
      {"measurement": "NP40-soluble protein abundance", "setting": "concentration: 1mM", "value": "1.04 ± 0.043"},
      {"measurement": "NP40-soluble protein abundance", "setting": "concentration: 2mM", "value": "1.04 ± 0.057"},
      {"measurement": "NP40-soluble protein abundance", "setting": "concentration: 4mM", "value": "0.97 ± 0.026"},
      {"measurement": "NP40-soluble protein abundance", "setting": "concentration: 6mM", "value": "0.9722 ± 0.0066"},
      {"measurement": "NP40-soluble protein abundance", "setting": "concentration: 8mM", "value": "0.917 ± 0.017"},
      {"measurement": "NP40-soluble protein abundance", "setting": "concentration: 10mM", "value": "0.933 ± 0.047"}
    ]},
    {"target": "A0A024R1V6|P35227 (UniProt P35227)", "values": [
      {"measurement": "NP40-soluble protein abundance", "setting": "concentration: 1mM", "value": "1.01 ± 0.017"},
      {"measurement": "NP40-soluble protein abundance", "setting": "concentration: 2mM", "value": "1 ± 0.03"},
      {"measurement": "NP40-soluble protein abundance", "setting": "concentration: 4mM", "value": "1.02 ± 0.0049"},
      {"measurement": "NP40-soluble protein abundance", "setting": "concentration: 6mM", "value": "1.02 ± 0.011"},
      {"measurement": "NP40-soluble protein abundance", "setting": "concentration: 8mM", "value": "1.05 ± 0.038"},
      {"measurement": "NP40-soluble protein abundance", "setting": "concentration: 10mM", "value": "1.08 ± 0.048"}
    ]},
    {"target": "A0A087WUI1|Q9Y388 (UniProt Q9Y388)", "values": [
      {"measurement": "NP40-soluble protein abundance", "setting": "concentration: 1mM", "value": "1.05 ± 0.044"},
      {"measurement": "NP40-soluble protein abundance", "setting": "concentration: 2mM", "value": "0.997 ± 0.024"},
      {"measurement": "NP40-soluble protein abundance", "setting": "concentration: 4mM", "value": "1.01 ± 0.022"},
      {"measurement": "NP40-soluble protein abundance", "setting": "concentration: 6mM", "value": "1.09 ± 0.025"},
      {"measurement": "NP40-soluble protein abundance", "setting": "concentration: 8mM", "value": "1.12 ± 0.033"},
      {"measurement": "NP40-soluble protein abundance", "setting": "concentration: 10mM", "value": "1.13 ± 0.063"}
    ]}
  ]
}
